These are yes or no findings as the source states them, for the method shown. In cells and extracts the contact can be indirect. These calls come from enrichment with a bait or labelling near it, and not all partners need be listed.
Target: Flag-tagged mouse MEX3C-2 (mouse) (UniProt Q05A36)
Experiment: affinity purification with mass spectrometry; MEX3C-2-Flag transiently expressed in HEK293; NP-40 buffer lysate, anti-Flag agarose beads, elution with 0.1 M glycine HCl pH 2.5; bands unique to the MEX3C-2-Flag preparation cut from a Coomassie gel, LC-MS/MS

Protein sequences, listed by entry. Tags and fused reporters are not part of them. Lines headed by an entry give the natural chain unless they say otherwise; changes in a name come on top.
UniProt Q05A36: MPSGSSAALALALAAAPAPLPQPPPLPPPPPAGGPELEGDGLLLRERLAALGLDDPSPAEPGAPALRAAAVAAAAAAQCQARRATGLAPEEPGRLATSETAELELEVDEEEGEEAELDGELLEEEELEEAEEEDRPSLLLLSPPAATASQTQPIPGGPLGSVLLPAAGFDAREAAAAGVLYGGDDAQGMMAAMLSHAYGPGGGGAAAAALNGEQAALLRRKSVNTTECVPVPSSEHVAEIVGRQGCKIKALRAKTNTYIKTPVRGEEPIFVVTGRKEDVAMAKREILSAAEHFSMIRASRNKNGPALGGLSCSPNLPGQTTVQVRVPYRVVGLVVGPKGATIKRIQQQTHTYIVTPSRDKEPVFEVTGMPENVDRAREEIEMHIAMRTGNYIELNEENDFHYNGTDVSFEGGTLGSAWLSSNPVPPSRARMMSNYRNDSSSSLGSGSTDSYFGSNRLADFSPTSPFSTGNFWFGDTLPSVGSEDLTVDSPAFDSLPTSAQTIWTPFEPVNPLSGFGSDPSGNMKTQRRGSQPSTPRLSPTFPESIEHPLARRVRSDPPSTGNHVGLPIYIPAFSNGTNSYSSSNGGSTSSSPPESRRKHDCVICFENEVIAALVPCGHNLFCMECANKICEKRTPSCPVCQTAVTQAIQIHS
UniProt P11940: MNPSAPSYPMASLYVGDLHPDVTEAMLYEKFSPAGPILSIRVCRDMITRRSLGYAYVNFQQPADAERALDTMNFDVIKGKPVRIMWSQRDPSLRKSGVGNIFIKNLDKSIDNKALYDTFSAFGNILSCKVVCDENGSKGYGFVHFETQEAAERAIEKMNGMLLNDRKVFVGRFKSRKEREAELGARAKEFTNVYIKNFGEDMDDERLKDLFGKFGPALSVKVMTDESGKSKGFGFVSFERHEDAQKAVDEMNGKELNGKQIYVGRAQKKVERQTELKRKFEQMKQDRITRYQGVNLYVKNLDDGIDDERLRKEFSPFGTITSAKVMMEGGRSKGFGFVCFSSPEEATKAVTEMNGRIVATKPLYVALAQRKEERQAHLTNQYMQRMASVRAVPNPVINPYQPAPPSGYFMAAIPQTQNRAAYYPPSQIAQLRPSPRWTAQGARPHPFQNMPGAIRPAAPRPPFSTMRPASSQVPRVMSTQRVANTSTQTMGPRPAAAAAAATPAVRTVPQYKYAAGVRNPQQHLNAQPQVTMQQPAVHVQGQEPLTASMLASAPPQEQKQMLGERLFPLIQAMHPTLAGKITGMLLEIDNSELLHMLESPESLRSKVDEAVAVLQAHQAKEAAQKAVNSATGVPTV

binding: binds
Substance: PABPC1 (from UniProt P11940 1-636)
